# In PMC7064775, “Cyclic di-GMP Signaling in Bacillus subtilis Is Governed by Direct Interactions of Diguanylate Cyclases and Cognate Receptors” (mBio, 2020):
# These are yes or no findings as the source states them, for the method shown. Binding seen in cells or lysates may run through a third protein. These calls come from enrichment with a bait or labelling near it, and not all partners need be listed. Sequences can lack the tags named with a protein.
# T1: His6-DgcK-ΔN175 (Bacillus subtilis NCIB 3610, UniProt P54595 176-359)
# T1 construct: Diguanylate cyclase DgcK of Bacillus subtilis NCIB 3610, soluble domain, residues 176 to 359 (construct pAT02b); also called His-DgcK-ΔN175; soluble domain of DgcK; source: E. coli BL21(DE3), purified (Ni-NTA, SEC); also coexpressed with YdaK-ΔN111 in E. coli BL21(DE3), in lysate; not shown: His6, N-terminal, kept
# T1 sequence (looked up): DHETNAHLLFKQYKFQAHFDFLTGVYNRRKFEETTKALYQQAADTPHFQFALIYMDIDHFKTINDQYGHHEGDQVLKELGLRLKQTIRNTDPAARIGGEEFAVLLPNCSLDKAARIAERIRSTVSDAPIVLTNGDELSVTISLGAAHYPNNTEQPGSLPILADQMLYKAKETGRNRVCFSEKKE
# Molecular target: T1, His6-DgcK-ΔN175
# Assay: affinity purification with mass spectrometry; His6-DgcK-ΔN175 coexpressed with untagged YdaK-ΔN111 from two plasmids in E. coli BL21(DE3), isolated from the lysate by Ni-NTA chromatography; elution fraction analysed by SDS-PAGE and MS
binder,measurement,value
"YdaK-ΔN111 (untagged) (domain or fragment, UniProt P96585 112-283) DITAELRRSMTRLQSEIKSYVAVDRVTGFDNKQRMKLELSEEIKRAERYGNSFVFLLLHMHYFKEFKSLYGEKETDRLFQYVGQQIRTSVRETDKKFRPSDERIGIVLTHTPAEHMPAVLTKLKKQLDTYQLENGKYVSLTFHVCYLPYRNDIQTADQFLEELENEMMMNEL",binding,binds
